Experimental data: PubChem BioAssay AID1508597 (Cure First, 2020)

Aim: 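Knock-downs altering ovarian cancer cell survival with or without PARP inhibitor rucaparib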 (primary screen)
Cell system: human ovarian carcinoma lines grown from tumours: OCI-P5x (papillary serous) and OCI-C5x (clear cell)
Reagent: siRNA pool against human genes, 1.25 pmol siRNA per well
Timing: 72 h or 96 h, depending on the cell culture
Challenge: rucaparib 20 µM (about IC30) or vehicle, present until read-out
Rucaparib or vehicle: Vehicle
Cell line: OCI-P5x (serous)
Detection: 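ATP luminescence measured at 72 or 96 h according to the culture, then normalised and expressed as percent viability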
Scale: viability, normalised: higher = more viable cells remaining
Rule for the call: 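a well counts as a hit if its normalised viability is under 80 percent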
Calls: active = viability under 80%; inactive = viability 80% or more
This is an unselected part of the about 2,100 reagents, in one setting of the screen. 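Calls flag viability under 80% in either arm, not effects specific to rucaparib; the reference for percent is not stated.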 Some reagents were tested in more than one well and are listed for each. No sequences are given here. The record does not give: the 100% reference.

Gene | technical replicate | viability, normalised (%) | Call
INO80C | 1 | 68.8 | active
INO80C | 2 | 83.6 | inactive
INO80C | 3 | 78.6 | active
GNAT1 | 1 | 58.4 | active
GNAT1 | 2 | 57.2 | active
GNAT1 | 3 | 69 | active
ALDOA | 1 | 64.2 | active
ALDOA | 2 | 54.9 | active
ALDOA | 3 | 54.6 | active
MED29 | 1 | 65.5 | active
MED29 | 2 | 51.9 | active
MED29 | 3 | 65.6 | active
KDM4A | 1 | 44.3 | active
KDM4A | 2 | 58 | active
KDM4A | 3 | 62.5 | active
FAN1 | 1 | 91.3 | inactive
FAN1 | 2 | 82.7 | inactive
FAN1 | 3 | 85.1 | inactive
FANCM | 1 | 67.4 | active
FANCM | 1 | 70.5 | active
FANCM | 2 | 70 | active
FANCM | 2 | 80.9 | inactive
FANCM | 3 | 128 | inactive
FANCM | 3 | 58.3 | active
DDX52 | 1 | 77.4 | active
DDX52 | 2 | 79.4 | active
DDX52 | 3 | 81.3 | inactive
CDK15 | 1 | 104 | inactive
CDK15 | 2 | 94.6 | inactive
CDK15 | 3 | 91 | inactive
DLG2 | 1 | 88.1 | inactive
DLG2 | 2 | 82.9 | inactive
DLG2 | 3 | 90.3 | inactive

Continued, starting with the last 6 of the part before.
Gene | technical replicate | viability, normalised (%) | Call
CDK15 | 1 | 104 | inactive
CDK15 | 2 | 94.6 | inactive
CDK15 | 3 | 91 | inactive
DLG2 | 1 | 88.1 | inactive
DLG2 | 2 | 82.9 | inactive
DLG2 | 3 | 90.3 | inactive
ATF7IP | 1 | 59.8 | active
ATF7IP | 2 | 68.3 | active
ATF7IP | 3 | 79.3 | active
NR4A2 | 1 | 52.2 | active
NR4A2 | 2 | 49.1 | active
NR4A2 | 3 | 65.8 | active
TLK1 | 1 | 76.5 | active
TLK1 | 1 | 81 | inactive
TLK1 | 2 | 93.1 | inactive
TLK1 | 2 | 91.1 | inactive
TLK1 | 3 | 82.9 | inactive
TLK1 | 3 | 80.6 | inactive
RALY | 1 | 54.6 | active
RALY | 2 | 72.4 | active
RALY | 3 | 60.7 | active
SET | 1 | 80.8 | inactive
SET | 2 | 88.6 | inactive
SET | 3 | 73.1 | active
TOP2A | 1 | 77.5 | active
TOP2A | 2 | 55 | active
TOP2A | 3 | 69.5 | active
ERCC1 | 1 | 48.1 | active
ERCC1 | 1 | 73 | active
ERCC1 | 2 | 70.9 | active
ERCC1 | 2 | 42.7 | active
ERCC1 | 3 | 43.8 | active
ERCC1 | 3 | 47.3 | active
NOG | 1 | 37.6 | active
NOG | 2 | 46 | active
NOG | 3 | 64.6 | active
SLIT2 | 1 | 45.3 | active
SLIT2 | 2 | 47.9 | active
SLIT2 | 3 | 53.6 | active
TDRKH | 1 | 65.2 | active
TDRKH | 2 | 74.3 | active
TDRKH | 3 | 98.7 | inactive
DGKA | 1 | 104 | inactive
DGKA | 2 | 101 | inactive
DGKA | 3 | 97.6 | inactive
KDM5C | 1 | 41.7 | active
KDM5C | 2 | 41.3 | active
KDM5C | 3 | 78.2 | active
